The target in experiment [1] is β3-integrin (ITGB3), Myc-tagged (UniProt P05106). In words: co-IP; reverse competition (Supplementary Figure S4a and b): interaction of TGFBI with ITGB3/5 tested with overexpression of pro-TGFβ1; details of the IP not shown.
Experiment [2] shares this target. In words: co-IP; HEK293T cells transfected with two proteins; lysis in 50 mM Hepes pH 7.6, 150 mM NaCl, 5 mM EDTA, 1-2% Nonidet P-40; lysates incubated overnight at 4 °C with anti-GFP, anti-Myc (9E10) or anti-Flag M2, then 1 h with Protein-A Sepharose; three washes in buffer without NP-40; western blot. A general note: In western blotting, separated proteins are transferred to a membrane and probed.

The chains behind the UniProt entries cited, without tags or fusion partners. Residues count along the entry.
UniProt P05106, residues 27-788: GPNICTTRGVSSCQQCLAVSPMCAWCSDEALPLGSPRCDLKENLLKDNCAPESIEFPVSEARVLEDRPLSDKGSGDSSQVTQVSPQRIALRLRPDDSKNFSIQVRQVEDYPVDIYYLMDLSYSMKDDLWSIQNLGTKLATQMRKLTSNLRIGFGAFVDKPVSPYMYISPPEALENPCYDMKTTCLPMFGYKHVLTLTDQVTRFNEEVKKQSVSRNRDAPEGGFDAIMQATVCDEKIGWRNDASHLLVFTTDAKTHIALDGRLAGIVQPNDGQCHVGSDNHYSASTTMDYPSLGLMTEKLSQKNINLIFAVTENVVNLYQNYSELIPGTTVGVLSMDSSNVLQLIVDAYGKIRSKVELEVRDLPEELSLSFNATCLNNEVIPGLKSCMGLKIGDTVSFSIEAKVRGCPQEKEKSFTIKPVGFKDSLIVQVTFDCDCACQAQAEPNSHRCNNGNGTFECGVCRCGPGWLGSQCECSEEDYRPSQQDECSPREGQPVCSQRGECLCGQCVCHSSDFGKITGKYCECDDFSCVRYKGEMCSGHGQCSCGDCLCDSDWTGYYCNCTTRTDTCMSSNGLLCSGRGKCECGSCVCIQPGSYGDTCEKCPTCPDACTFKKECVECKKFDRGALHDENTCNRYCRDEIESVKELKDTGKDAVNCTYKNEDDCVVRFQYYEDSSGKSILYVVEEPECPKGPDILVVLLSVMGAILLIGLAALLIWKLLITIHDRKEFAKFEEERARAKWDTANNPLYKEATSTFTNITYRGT

Binding data for one molecule are collected here from PMC5966388.

These are yes or no findings as the source states them, for the method shown. Binding seen in cells or lysates may run through a third protein. Some entries that bind do so weakly or less than the wild type. Sequences can lack the tags named with a protein.

B1: transforming growth factor beta-induced (TGFBI), non-tagged (protein, UniProt Q15582 24-683)
chain: GPAKSPYQLVLQHSRLRGRQHGPNVCAVQKVIGTNRKYFTNCKQWYQRKICGKSTVISYECCPGYEKVPGEKGCPAALPLSNLYETLGVVGSTTTQLYTDRTEKLRPEMEGPGSFTIFAPSNEAWASLPAEVLDSLVSNVNIELLNALRYHMVGRRVLTDELKHGMTLTSMYQNSNIQIHHYPNGIVTVNCARLLKADHHATNGVVHLIDKVISTITNNIQQIIEIEDTFETLRAAVAASGLNTMLEGNGQYTLLAPTNEAFEKIPSETLNRILGDPEALRDLLNNHILKSAMCAEAIVAGLSVETLEGTTLEVGCSGDMLTINGKAIISNKDILATNGVIHYIDELLIPDSAKTLFELAAESDVSTAIDLFRQAGLGNHLSGSERLTLLAPLNSVFKDGTPPIDAHTRNLLRNHIIKDQLASKYLYHGQTLETLGGKKLRVFVYRNSLCIENSCIAAHDKRGRYGTLFTMDRVLTPPMGTVMDVLKGDNRFSMLVAAIQSAGLTETLNREGVYTVFAPTNEAFRALPPRERSRLLGDAKELANILKYHIGDEILVSGGIGALVRLKSLQGDKLEVSLKNNVVSVNKEPVAEPDIMATNGVVHVITNVLQPPANRPQERGDELADSALEIFKQASAFSRASQRSVRLAPVYQKLLERMKH
As to B1, the binding result in experiment [1] and in experiment [2] was “binds” throughout.
